# From the supplement of paper PMC4635364
# Structures can show the parent of a compound that is named as a salt. The list shows a part of the results. Repeats in this data set agree poorly, so a single value says little.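 Cells: ReNCell VM human fetal ventral-midbrain neural progenitors, differentiated mitogen-free. Blinded raters compared doublecortin-stained (early neurons) or tyrosine hydroxylase-stained (dopaminergic neurons) images with untreated wells, where 0 means no change. After repeats and both raters were averaged, compounds scoring 2 or above became hits for retesting.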 Where a SMILES comes first, the peptide text is derived from it. [ ]: non-standard residue; d: D form. The star is where a group is joined. Sta = CC(C)C[C@H](N)[C@@H](O)CC(=O)O; Isovaleryl = CC(C)CC(=O)*
# What was measured:
# ReNCell VM [1] = assay: neuronal differentiation score (DCX+ cell fraction vs untreated, manual image score) (score (-3 to 3)); higher = more neuronal differentiation; details: 2 uM, 2 weeks
# ReNCell VM [2] = assay: dopaminergic neuron differentiation score (TH+ cell fraction vs untreated, manual image score) (score (0 to 3)); higher = more TH+ dopaminergic neuron differentiation; details: 2 uM, 4 weeks, BDNF 10 ng/ml + GDNF 10 ng/ml
smiles,measurement,setting,value
CC(C)CC(=O)N[C@H](C(=O)N[C@H](C(=O)N[C@@H](CC(C)C)[C@@H](O)CC(=O)N[C@@H](C)C(=O)N[C@@H](CC(C)C)[C@@H](O)CC(=O)O)C(C)C)C(C)C [Pepstatin A] (Isovaleryl-VV[Sta]A[Sta]-OH),neuronal differentiation score,ReNCell VM [1]; library: Prestwick,inactive: 0
same,dopaminergic neuron differentiation score,ReNCell VM [2]; library: Prestwick,inactive: 0
COc1ccc(NS(=O)(=O)c2ccc(I)cc2)cc1N1CCN(C)CC1,neuronal differentiation score,ReNCell VM [1]; library: Tocriscreen,inactive: 0
same,dopaminergic neuron differentiation score,ReNCell VM [2]; library: Tocriscreen,inactive: 0
CCN(CC)CCNC(=O)COc1ccc(OC)cc1,neuronal differentiation score,ReNCell VM [1]; library: Spectrum,inactive: 0
same,dopaminergic neuron differentiation score,ReNCell VM [2]; library: Spectrum,inactive: 0
C1N2CN3CN1CN(C2)C3 [Methenamine],neuronal differentiation score,ReNCell VM [1]; library: Prestwick,inactive: 0
same,dopaminergic neuron differentiation score,ReNCell VM [2]; library: Prestwick,inactive: 0
"OC(CCN1CCCCC1)(c1ccccc1)C1CCCCC1 (stereo not given) [Trihexyphenidyl-D,L Hydrochloride]",neuronal differentiation score,ReNCell VM [1]; library: Prestwick,inactive: 0
same,dopaminergic neuron differentiation score,ReNCell VM [2]; library: Prestwick,inactive: 0
COC(=O)c1c(-c2cc(OC)c(OC)c(OC)c2)c2ccnc(OCc3ncccn3)c2c(=O)n1Cc1ccnc(C)c1 [T 0156 hydrochloride],neuronal differentiation score,ReNCell VM [1]; library: Tocriscreen,inactive: 0
same,dopaminergic neuron differentiation score,ReNCell VM [2]; library: Tocriscreen,inactive: 0
NCCCCNCCCN,neuronal differentiation score,ReNCell VM [1]; library: Spectrum,inactive: 0
same,dopaminergic neuron differentiation score,ReNCell VM [2]; library: Spectrum,inactive: 0
NCCCC(O)(P(=O)(O)O)P(=O)(O)O [Alendronate sodium],neuronal differentiation score,ReNCell VM [1]; library: Prestwick,inactive: 0
same,dopaminergic neuron differentiation score,ReNCell VM [2]; library: Prestwick,inactive: 0
COc1ccc2c(c1OC)C(=O)N1c3ccccc3C(=O)OC21 (stereo not given),neuronal differentiation score,ReNCell VM [1]; library: Natural,inactive: 0
same,dopaminergic neuron differentiation score,ReNCell VM [2]; library: Natural,inactive: 0
CCCNC(C)C(=O)Nc1c(C)csc1C(=O)OC (stereo not given) [Articaine hydrochloride],neuronal differentiation score,ReNCell VM [1]; library: Prestwick,inactive: 0
same,dopaminergic neuron differentiation score,ReNCell VM [2]; library: Prestwick,inactive: 0
CC#CCn1c(N2CCC[C@@H](N)C2)nc2c1c(=O)n(Cc1nc(C)c3ccccc3n1)c(=O)n2C,neuronal differentiation score,ReNCell VM [1]; library: Spectrum,inactive: 0
same,dopaminergic neuron differentiation score,ReNCell VM [2]; library: Spectrum,inactive: 0
OC1(c2ccc(Cl)cc2)CCN(Cc2c[nH]c3ccccc23)CC1,neuronal differentiation score,ReNCell VM [1]; library: LOPAC,inactive: 0
same,dopaminergic neuron differentiation score,ReNCell VM [2]; library: LOPAC,inactive: 0
O=C(N/N=C/c1ccc([N+](=O)[O-])o1)c1ccc(O)cc1,neuronal differentiation score,ReNCell VM [1]; library: Spectrum,inactive: 0
same,dopaminergic neuron differentiation score,ReNCell VM [2]; library: Spectrum,inactive: 0
COc1ccc(-c2oc3cc(OC)c(OC)c(OC)c3c(=O)c2OC)cc1OC,neuronal differentiation score,ReNCell VM [1]; library: Spectrum,inactive: 0
same,dopaminergic neuron differentiation score,ReNCell VM [2]; library: Spectrum,inactive: 0
C[N+]1(C)CCC(=C(c2ccccc2)c2ccccc2)CC1 [Diphemanil methylsulfate],neuronal differentiation score,ReNCell VM [1]; library: Prestwick,inactive: 0
same,dopaminergic neuron differentiation score,ReNCell VM [2]; library: Prestwick,inactive: 0
CC(=O)CC(c1ccc([N+](=O)[O-])cc1)c1c(O)c2ccccc2oc1=O (stereo not given),neuronal differentiation score,ReNCell VM [1]; library: Spectrum,inactive: 0
same,dopaminergic neuron differentiation score,ReNCell VM [2]; library: Spectrum,inactive: 0
Clc1ccc(C(c2ccccc2Cl)C(Cl)Cl)cc1 (stereo not given),neuronal differentiation score,ReNCell VM [1]; library: Spectrum,inactive: 0
same,dopaminergic neuron differentiation score,ReNCell VM [2]; library: Spectrum,inactive: 0
CN(C)CC/C=C1/c2ccccc2COc2ccc(CC(=O)O)cc21 [Olopatadine hydrochloride],neuronal differentiation score,ReNCell VM [1]; library: Prestwick,inactive: 0
same,dopaminergic neuron differentiation score,ReNCell VM [2]; library: Prestwick,inactive: 0
CCc1nn(CCCN2CCN(c3cccc(Cl)c3)CC2)c(=O)n1CCOc1ccccc1,neuronal differentiation score,ReNCell VM [1]; library: Spectrum,inactive: 0
same,dopaminergic neuron differentiation score,ReNCell VM [2]; library: Spectrum,inactive: 0
Nc1ccn([C@@H]2O[C@H](CO)[C@@H](O)[C@@H]2O)c(=O)n1 [Cytarabine],neuronal differentiation score,ReNCell VM [1]; library: Prestwick,inactive: 0
same,dopaminergic neuron differentiation score,ReNCell VM [2]; library: Prestwick,inactive: 0
CC1/C=C/C=C/C=C/C=C/C=C/C=C/C=C/C(OC2O[C@H](C)[C@@H](O)[C@H](N)[C@@H]2O)CC(O)C(C(=O)O)C(O)CC(=O)CC(O)CC(O)CC(O)CC(=O)CCCC(=O)CC(=O)OC1C(C)CC(C)C(O)CC(=O)c1ccc(N)cc1 (stereo not given in full),neuronal differentiation score,ReNCell VM [1]; library: Spectrum,inactive: 0
same,dopaminergic neuron differentiation score,ReNCell VM [2]; library: Spectrum,inactive: 0
Cc1cc(CC(=O)O)n(C)c1C(=O)c1ccc(Cl)cc1 [Zomepirac sodium salt],neuronal differentiation score,ReNCell VM [1]; library: Prestwick,inactive: 0
same,dopaminergic neuron differentiation score,ReNCell VM [2]; library: Prestwick,inactive: 0
O=C(O)CCCCCCCC(=O)O,neuronal differentiation score,ReNCell VM [1]; library: Spectrum,inactive: -1
same,dopaminergic neuron differentiation score,ReNCell VM [2]; library: Spectrum,inactive: 0
CCCCCCCCCCCCCCCC(=O)NCCO,neuronal differentiation score,ReNCell VM [1]; library: Spectrum,inactive: 0
same,dopaminergic neuron differentiation score,ReNCell VM [2]; library: Spectrum,inactive: 0
NC(N)=NC(N)=Nc1cccc(Cl)c1 [1-(m-Chlorophenyl)-biguanide hydrochloride],neuronal differentiation score,ReNCell VM [1]; library: LOPAC,inactive: 0
same,dopaminergic neuron differentiation score,ReNCell VM [2]; library: LOPAC,inactive: 0
Cc1ccc(/C(=C\CN2CCCC2)c2ccccn2)cc1 [trans-Triprolidine hydrochloride],neuronal differentiation score,ReNCell VM [1]; library: Tocriscreen,inactive: 0
same,dopaminergic neuron differentiation score,ReNCell VM [2]; library: Tocriscreen,inactive: 0
COc1ccc(C(=O)N(O)c2ccccc2)cc1 [n-hydroxy-4-methoxy-n-phenylbenzamide],neuronal differentiation score,ReNCell VM [1]; library: Natural,inactive: 0
same,dopaminergic neuron differentiation score,ReNCell VM [2]; library: Natural,inactive: 0
C[C@@H](O)CN(CCN(C[C@@H](C)O)C[C@@H](C)O)C[C@@H](C)O,neuronal differentiation score,ReNCell VM [1]; library: Spectrum,inactive: 0
same,dopaminergic neuron differentiation score,ReNCell VM [2]; library: Spectrum,inactive: 0
N=c1ccn2c(n1)O[C@H]1[C@H](O)[C@@H](CO)O[C@H]12 [Ancitabine hydrochloride],neuronal differentiation score,ReNCell VM [1]; library: LOPAC,inactive: 0
same,dopaminergic neuron differentiation score,ReNCell VM [2]; library: LOPAC,inactive: 0
c1cnc(N2CCN(Cc3ccc4c(c3)OCO4)CC2)nc1 [Piribedil hydrochloride],neuronal differentiation score,ReNCell VM [1]; library: Prestwick,inactive: 0
same,dopaminergic neuron differentiation score,ReNCell VM [2]; library: Prestwick,inactive: 0
CO[C@@]1(NC(=O)CSCC#N)C(=O)N2C(C(=O)O)=C(CSc3nnnn3C)CS[C@@H]21,neuronal differentiation score,ReNCell VM [1]; library: Spectrum,inactive: 0
same,dopaminergic neuron differentiation score,ReNCell VM [2]; library: Spectrum,inactive: 0
CN(Cc1cnc2nc(N)nc(N)c2n1)c1ccc(C(=O)N[C@@H](CCC(=O)O)C(=O)O)cc1 [Methotrexate hydrate],neuronal differentiation score,ReNCell VM [1]; library: LOPAC,inactive: 0
same,dopaminergic neuron differentiation score,ReNCell VM [2]; library: LOPAC,inactive: 0
O=C(O)/C=C/C=C/c1ccc2c(c1)OCO2,neuronal differentiation score,ReNCell VM [1]; library: Spectrum,inactive: 0
same,dopaminergic neuron differentiation score,ReNCell VM [2]; library: Spectrum,inactive: 0
"Brc1c(NC2=NCCN2)ccc2nccnc12 [UK 14,304 tartrate]",neuronal differentiation score,ReNCell VM [1]; library: Tocriscreen,inactive: 0
same,dopaminergic neuron differentiation score,ReNCell VM [2]; library: Tocriscreen,inactive: 0
Cc1ccc(S(=O)(=O)NC(=O)NN2CC3CCCC3C2)cc1 (stereo not given) [Gliclazide],neuronal differentiation score,ReNCell VM [1]; library: Prestwick,inactive: 0
same,dopaminergic neuron differentiation score,ReNCell VM [2]; library: Prestwick,inactive: 0

# Reformatted tab-delimited: part of the list above.
smiles	measurement	setting	value
NC(N)=NC(N)=Nc1cccc(Cl)c1 [1-(m-Chlorophenyl)-biguanide hydrochloride]	dopaminergic neuron differentiation score	ReNCell VM [2]; library: LOPAC	inactive: 0
Cc1ccc(/C(=C\CN2CCCC2)c2ccccn2)cc1 [trans-Triprolidine hydrochloride]	neuronal differentiation score	ReNCell VM [1]; library: Tocriscreen	inactive: 0
same	dopaminergic neuron differentiation score	ReNCell VM [2]; library: Tocriscreen	inactive: 0
COc1ccc(C(=O)N(O)c2ccccc2)cc1 [n-hydroxy-4-methoxy-n-phenylbenzamide]	neuronal differentiation score	ReNCell VM [1]; library: Natural	inactive: 0

# Rewritten with bars between the fields: entries from further up.
smiles | measurement | setting | value
Nc1ccn([C@@H]2O[C@H](CO)[C@@H](O)[C@@H]2O)c(=O)n1 [Cytarabine] | dopaminergic neuron differentiation score | ReNCell VM [2]; library: Prestwick | inactive: 0
O=C(O)CCCCCCCC(=O)O | dopaminergic neuron differentiation score | ReNCell VM [2]; library: Spectrum | inactive: 0
